Assay results as given in publication PMC6134688, “Identification of a novel site of interaction between ataxin-3 and the amyloid aggregation inhibitor polyglutamine binding peptide 1” (European Journal of Mass Spectrometry (Chichester, England), 2017).
No constants are given. Whether binding was seen depends on the method and setting.

Chains of the proteins cited; added tags and fusions are not shown. Residues count along the entry.
Josephin domain alone (ataxin-3 residues 1-182) (P54252, residues 1-182): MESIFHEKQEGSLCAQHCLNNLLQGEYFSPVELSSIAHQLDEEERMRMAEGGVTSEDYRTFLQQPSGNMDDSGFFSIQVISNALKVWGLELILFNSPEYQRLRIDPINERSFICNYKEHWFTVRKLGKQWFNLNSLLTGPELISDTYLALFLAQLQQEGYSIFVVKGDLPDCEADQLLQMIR
UIM peptide 222-264 of ataxin-3 (P54252, residues 222-264): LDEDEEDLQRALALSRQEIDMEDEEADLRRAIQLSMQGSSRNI
UIM peptide 222-241 of ataxin-3 (P54252, residues 222-241): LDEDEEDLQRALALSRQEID

Legend:
[1] = molecular target: UIM peptide 222-264 of ataxin-3 (UniProt P54252); assay: native MS; nanoESI-MS; equimolar QBP1 (for the TEV-cleaved MBP fusion the ratio is not told); both purified
[2] = molecular target: UIM peptide 222-241 of ataxin-3 (UniProt P54252); assay: as above
[3] = molecular target: Josephin domain alone (ataxin-3 residues 1-182) (UniProt P54252); assay: native MS; nanoESI-MS; 10 μM protein and 50 μM QBP1 (five-fold molar excess) in 250 mM ammonium hydrogen carbonate, 1 mM dithiothreitol, pH 7.8; both purified
[4] = molecular target: Josephin domain alone (ataxin-3 residues 1-182) (UniProt P54252); assay: 1H T1rho NMR (signal of the peptide); 50 μM QBP1 and 10 μM protein in 250 mM ammonium hydrogen carbonate, 10% (v/v) D2O; 100 ms spin-lock; methyl region 0.45-0.75 ppm integrated; both purified

B1: polyQ binding peptide 1 (peptide)
peptide: SNWKWWPGIFD
modifications: N-terminally acetylated
[1]
  binding: no binding
[2]
  binding: no binding
[3]
  binding: no binding (tested: 10 μM protein and 50 μM QBP1)
[4]
  binding: no binding (tested: 50 μM QBP1 and 10 μM protein)
